PubChem BioAssay AID1224829, NIAID, 2016

Assay: 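Genes needed for LPS-driven NF-kappaB p65 nuclear entry in mouse macrophages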 (follow-up of hits)
Cells: mouse RAW264.7 G9 macrophage reporter cells
Reagents: single siRNA against mouse genes, 100 nM
Duration: 2 days of siRNA knock-down, then 40 min of LPS before fixing
Treatment: LPS (Salmonella minnesota R595) at 10 ng/ml
Measurement: 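High-content images after 40 min LPS exposure; GFP-p65 nucleus to surrounding ring signal ratio, normalised to plate median and non-targeting control wells, expressed as z-score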
Direction: p65 translocation z-score: higher = more nuclear NF-kappaB p65 after LPS
Hit rule: 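Active means the replicate-mean z-score lies beyond plus or minus 2, in either direction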
Calls: active = changed p65 translocation (either direction); inactive = no clear change
Shown is a random part of about 3,800 deposited reagents. 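Calls cover raised and lowered translocation; gene median uses one vendor's three siRNAs; qiagen siRNAs acted more weakly than ambion siRNAs.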 A number with no mark means an inactive call. Further read-outs or replicates are left out here. Reagent sequences are not shown.

With Thrsp [SID315485004], siRNA vendor or control pool ambion single siRNA the deposit lists p65 translocation z-score, replicate mean 6.35 (active); p65 translocation z-score, replicate 1 = 7.87. For Thrsp [SID315485005], siRNA vendor or control pool ambion single siRNA the deposit lists p65 translocation z-score, replicate mean -0.285; p65 translocation z-score, replicate 1 = -0.553. With Thrsp [SID315485006], siRNA vendor or control pool ambion single siRNA the deposit lists p65 translocation z-score, replicate mean -2.97 (active); p65 translocation z-score, replicate 1 = -3.63. Thrsp [SID315485007], siRNA vendor or control pool qiagen single siRNA showed p65 translocation z-score, replicate mean 2.31 (active); p65 translocation z-score, replicate 1 = 1.36. Thrsp [SID315485008], siRNA vendor or control pool qiagen single siRNA showed p65 translocation z-score, replicate mean 1.02; p65 translocation z-score, replicate 1 = -0.195. With Thrsp [SID315485009], siRNA vendor or control pool qiagen single siRNA, the values are p65 translocation z-score, replicate mean -0.31; p65 translocation z-score, replicate 1 = -0.154.

For Htra2 [SID315486279], siRNA vendor or control pool ambion single siRNA, the entry reads p65 translocation z-score, replicate mean -0.159; p65 translocation z-score, replicate 1 = 0.24. With Htra2 [SID315486280], siRNA vendor or control pool ambion single siRNA the deposit lists p65 translocation z-score, replicate mean -2.88 (active); p65 translocation z-score, replicate 1 = -3.34. Htra2 [SID315486281], siRNA vendor or control pool ambion single siRNA showed p65 translocation z-score, replicate mean 0.00995; p65 translocation z-score, replicate 1 = -0.261. For Htra2 [SID315486282], siRNA vendor or control pool qiagen single siRNA, the values are p65 translocation z-score, replicate mean 2.61 (active); p65 translocation z-score, replicate 1 = 2.37. Htra2 [SID315486283], siRNA vendor or control pool qiagen single siRNA showed p65 translocation z-score, replicate mean -0.703; p65 translocation z-score, replicate 1 = -1.61. Htra2 [SID315486284], siRNA vendor or control pool qiagen single siRNA scored p65 translocation z-score, replicate mean 1.86; p65 translocation z-score, replicate 1 = 0.357.

With Mapre3 [SID315487407], siRNA vendor or control pool ambion single siRNA, the values are p65 translocation z-score, replicate mean -1.54; p65 translocation z-score, replicate 1 = -1.53. For Mapre3 [SID315487408], siRNA vendor or control pool ambion single siRNA, the values are p65 translocation z-score, replicate mean -1.02; p65 translocation z-score, replicate 1 = 0.157. Mapre3 [SID315487409], siRNA vendor or control pool ambion single siRNA showed p65 translocation z-score, replicate mean 1.38; p65 translocation z-score, replicate 1 = 0.479. Mapre3 [SID315487410], siRNA vendor or control pool qiagen single siRNA scored p65 translocation z-score, replicate mean -0.0649; p65 translocation z-score, replicate 1 = 0.587. For Mapre3 [SID315487411], siRNA vendor or control pool qiagen single siRNA the deposit lists p65 translocation z-score, replicate mean 1.74; p65 translocation z-score, replicate 1 = 1.4. For Mapre3 [SID315487412], siRNA vendor or control pool qiagen single siRNA, the entry reads p65 translocation z-score, replicate mean -2.31 (active); p65 translocation z-score, replicate 1 = -3.77.

With Tpr [SID315487518], siRNA vendor or control pool ambion single siRNA, the values are p65 translocation z-score, replicate mean -4.02 (active); p65 translocation z-score, replicate 1 = -4.56. Tpr [SID315487519], siRNA vendor or control pool ambion single siRNA gave p65 translocation z-score, replicate mean -5.14 (active); p65 translocation z-score, replicate 1 = -4.38. With Tpr [SID315487520], siRNA vendor or control pool ambion single siRNA the deposit lists p65 translocation z-score, replicate mean -2.98 (active); p65 translocation z-score, replicate 1 = -3.95. Tpr [SID315487521], siRNA vendor or control pool qiagen single siRNA scored p65 translocation z-score, replicate mean 1.49; p65 translocation z-score, replicate 1 = -0.177. Tpr [SID315487522], siRNA vendor or control pool qiagen single siRNA gave p65 translocation z-score, replicate mean -0.978; p65 translocation z-score, replicate 1 = -0.704. For Tpr [SID315487523], siRNA vendor or control pool qiagen single siRNA, the values are p65 translocation z-score, replicate mean -0.178; p65 translocation z-score, replicate 1 = -1.03.

Zfp935 [SID315486627], siRNA vendor or control pool ambion single siRNA showed p65 translocation z-score, replicate mean -2.12 (active); p65 translocation z-score, replicate 1 = -1.18. With Zfp935 [SID315486628], siRNA vendor or control pool ambion single siRNA, the values are p65 translocation z-score, replicate mean -4.82 (active); p65 translocation z-score, replicate 1 = -4.82. Zfp935 [SID315486629], siRNA vendor or control pool ambion single siRNA gave p65 translocation z-score, replicate mean -3.2 (active); p65 translocation z-score, replicate 1 = -1.44. Zfp935 [SID315486630], siRNA vendor or control pool qiagen single siRNA scored p65 translocation z-score, replicate mean -1.97; p65 translocation z-score, replicate 1 = -3.16. With Zfp935 [SID315486631], siRNA vendor or control pool qiagen single siRNA, the values are p65 translocation z-score, replicate mean -1.36; p65 translocation z-score, replicate 1 = -2.94. Zfp935 [SID315486632], siRNA vendor or control pool qiagen single siRNA showed p65 translocation z-score, replicate mean 0.607; p65 translocation z-score, replicate 1 = 0.25.

Laid out differently: results already given.
gene	PubChem SID	siRNA vendor or control pool	p65 translocation z-score, replicate mean	p65 translocation z-score, replicate 1
Zfp935	SID315486629	ambion single siRNA	-3.2 (active)	-1.44
Zfp935	SID315486630	qiagen single siRNA	-1.97	-3.16
Zfp935	SID315486631	qiagen single siRNA	-1.36	-2.94
